Test system: thyroid glands from B10.D2 donors transplanted in the kidney's capsules of BALB/c mice
Assay: Function of transplanted thyroids (I125 absorbance), B10.D2→BALB/c model
Format: in vivo, mouse
Conditions: FK 506 300 μg/day ip, 7 times from day −2
Method: In this transplantation model for HVG, thyroid glands from donor mice were transplanted in the kidney's capsules of recipient mice. One week later the transplanted mice were injected with ^125I, and the radioactivity of each kidney (the recipient or the untransplanted kidney) was measured after 20 hours. Δcpm was calculated by subtracting the ^125I absorbance of the untransplanted kidneys from the ^125I absorbance of the recipient kidneys in the same treatment. The mean function index (MFI) for treatment was calculated by dividing the mean Δcpm for the tested treatment by the mean Δcpm for the PBS treatment. P values were obtained by the ANOVA test. This assay indicates objectively and quantitatively not only the graft survival, but also the function (iodine absorbance) of the transplanted thyroid tissue (Isakov et al., 1979). […]
To test the effect of Copolymer 1 treatment on the function of transplanted thyroids in the B10.D2→BALB/c model, thyroid glands from donors B10.D2 were transplanted in the kidney's capsules of BALB/c mice. After one week the transplanted mice were injected with I^125, and the radioactivity of each kidney was measured 20 hours later. A cpm was calculated by subtracting the I^125 absorbance of the untransplanted kidneys from the I^125 absorbance of the recipient kidneys in the same treatment. […]

`C=CC[C@@H]1/C=C(\C)C[C@H](C)C[C@H](OC)[C@H]2O[C@@](O)(C(=O)C(=O)N3CCCC[C@H]3C(=O)O[C@H](/C(C)=C/[C@@H]3CC[C@@H](O)[C@H](OC)C3)[C@H](C)[C@@H](O)CC1=O)[C@H](C)C[C@@H]2OC` [FK 506, tacrolimus] was tested, and the “Mean I^125 Absorption, untransplanted Kidney” value was 693 cpm.
